Reference: the supplement of paper PMC10849652
The other results are listed elsewhere or left out.

The chains behind the UniProt entries cited, without tags or fusion partners. Where a name states a change or a piece, a line headed by the entry shows the natural chain unless it says otherwise.
UniProt P49642: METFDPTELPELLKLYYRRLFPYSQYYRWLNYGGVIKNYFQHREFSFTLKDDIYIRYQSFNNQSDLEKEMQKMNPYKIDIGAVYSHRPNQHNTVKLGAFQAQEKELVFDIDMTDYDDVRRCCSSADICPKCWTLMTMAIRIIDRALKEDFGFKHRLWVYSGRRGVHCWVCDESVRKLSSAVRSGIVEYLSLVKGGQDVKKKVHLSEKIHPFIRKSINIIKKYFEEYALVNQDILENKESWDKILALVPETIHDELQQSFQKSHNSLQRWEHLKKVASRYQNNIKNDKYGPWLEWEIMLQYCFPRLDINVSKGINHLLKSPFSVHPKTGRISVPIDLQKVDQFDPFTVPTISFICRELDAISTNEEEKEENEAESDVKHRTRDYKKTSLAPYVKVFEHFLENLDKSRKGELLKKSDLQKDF
UniProt Q99873, whole entry, looked up: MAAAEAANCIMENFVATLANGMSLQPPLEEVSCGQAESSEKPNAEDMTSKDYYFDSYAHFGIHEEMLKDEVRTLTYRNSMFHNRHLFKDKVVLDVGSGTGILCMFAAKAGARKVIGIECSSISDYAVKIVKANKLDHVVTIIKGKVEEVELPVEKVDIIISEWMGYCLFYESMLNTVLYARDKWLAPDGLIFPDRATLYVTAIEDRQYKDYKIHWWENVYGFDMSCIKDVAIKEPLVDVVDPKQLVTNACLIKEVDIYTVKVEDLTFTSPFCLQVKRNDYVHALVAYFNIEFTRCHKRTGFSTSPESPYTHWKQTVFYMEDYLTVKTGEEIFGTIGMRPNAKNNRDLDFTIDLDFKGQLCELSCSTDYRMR
UniProt P14314: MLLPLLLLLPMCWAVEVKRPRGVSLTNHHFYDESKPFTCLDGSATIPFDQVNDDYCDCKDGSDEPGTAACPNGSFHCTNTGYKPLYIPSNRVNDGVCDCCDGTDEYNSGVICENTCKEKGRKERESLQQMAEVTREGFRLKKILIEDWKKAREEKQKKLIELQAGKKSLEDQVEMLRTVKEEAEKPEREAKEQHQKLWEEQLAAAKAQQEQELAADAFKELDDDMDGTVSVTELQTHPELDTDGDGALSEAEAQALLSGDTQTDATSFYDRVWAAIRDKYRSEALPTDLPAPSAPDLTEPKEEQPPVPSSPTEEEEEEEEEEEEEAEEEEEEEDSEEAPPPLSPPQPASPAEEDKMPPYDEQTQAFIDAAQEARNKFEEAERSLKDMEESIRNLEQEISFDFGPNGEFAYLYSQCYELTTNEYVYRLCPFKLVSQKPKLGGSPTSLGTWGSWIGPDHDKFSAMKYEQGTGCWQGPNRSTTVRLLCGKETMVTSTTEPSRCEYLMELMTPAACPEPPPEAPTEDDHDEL
UniProt Q13162: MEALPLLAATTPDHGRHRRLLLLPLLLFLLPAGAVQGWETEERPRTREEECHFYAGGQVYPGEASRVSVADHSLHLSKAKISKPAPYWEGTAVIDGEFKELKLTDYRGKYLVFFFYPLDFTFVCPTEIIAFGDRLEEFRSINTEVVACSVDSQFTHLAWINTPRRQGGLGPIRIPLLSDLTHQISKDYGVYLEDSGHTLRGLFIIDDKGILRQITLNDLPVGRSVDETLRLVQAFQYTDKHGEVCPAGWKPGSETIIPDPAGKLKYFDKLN
UniProt O60828: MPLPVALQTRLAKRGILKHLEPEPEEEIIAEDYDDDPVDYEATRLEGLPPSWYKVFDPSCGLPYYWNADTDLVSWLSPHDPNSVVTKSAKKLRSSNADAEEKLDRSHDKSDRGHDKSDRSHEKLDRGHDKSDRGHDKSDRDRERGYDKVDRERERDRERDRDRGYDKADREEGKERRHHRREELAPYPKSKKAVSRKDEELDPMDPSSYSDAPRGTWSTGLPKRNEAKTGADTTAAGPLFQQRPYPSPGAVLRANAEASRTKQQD
UniProt Q96LA8, whole entry, looked up: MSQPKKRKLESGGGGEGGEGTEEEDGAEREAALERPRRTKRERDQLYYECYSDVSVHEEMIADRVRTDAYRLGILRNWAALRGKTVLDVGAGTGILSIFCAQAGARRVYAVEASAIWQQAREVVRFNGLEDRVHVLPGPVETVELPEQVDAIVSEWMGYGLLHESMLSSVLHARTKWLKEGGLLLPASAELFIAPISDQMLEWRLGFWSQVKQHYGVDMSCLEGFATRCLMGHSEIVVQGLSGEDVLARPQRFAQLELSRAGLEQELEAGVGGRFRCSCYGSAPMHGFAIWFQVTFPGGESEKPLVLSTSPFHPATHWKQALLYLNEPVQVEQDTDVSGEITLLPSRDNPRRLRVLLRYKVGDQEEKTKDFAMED
UniProt O43395: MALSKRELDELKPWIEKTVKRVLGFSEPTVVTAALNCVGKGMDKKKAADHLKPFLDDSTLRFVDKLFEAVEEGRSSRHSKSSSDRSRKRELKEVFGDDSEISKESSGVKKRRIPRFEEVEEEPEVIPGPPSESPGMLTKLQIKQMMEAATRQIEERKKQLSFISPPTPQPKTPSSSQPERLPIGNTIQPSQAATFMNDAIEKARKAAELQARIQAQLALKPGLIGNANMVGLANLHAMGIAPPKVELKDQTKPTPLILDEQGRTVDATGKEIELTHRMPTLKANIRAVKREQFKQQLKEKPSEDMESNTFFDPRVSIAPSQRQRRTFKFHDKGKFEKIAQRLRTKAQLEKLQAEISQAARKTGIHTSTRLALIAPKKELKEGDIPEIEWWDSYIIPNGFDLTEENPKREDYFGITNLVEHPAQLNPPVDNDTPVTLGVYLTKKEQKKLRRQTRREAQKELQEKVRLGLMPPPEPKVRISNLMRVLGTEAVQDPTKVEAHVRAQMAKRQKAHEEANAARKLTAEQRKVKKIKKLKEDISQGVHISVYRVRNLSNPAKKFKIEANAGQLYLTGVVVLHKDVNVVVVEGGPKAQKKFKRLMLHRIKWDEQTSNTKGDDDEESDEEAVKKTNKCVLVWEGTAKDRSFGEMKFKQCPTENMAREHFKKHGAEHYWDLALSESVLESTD
UniProt O75569: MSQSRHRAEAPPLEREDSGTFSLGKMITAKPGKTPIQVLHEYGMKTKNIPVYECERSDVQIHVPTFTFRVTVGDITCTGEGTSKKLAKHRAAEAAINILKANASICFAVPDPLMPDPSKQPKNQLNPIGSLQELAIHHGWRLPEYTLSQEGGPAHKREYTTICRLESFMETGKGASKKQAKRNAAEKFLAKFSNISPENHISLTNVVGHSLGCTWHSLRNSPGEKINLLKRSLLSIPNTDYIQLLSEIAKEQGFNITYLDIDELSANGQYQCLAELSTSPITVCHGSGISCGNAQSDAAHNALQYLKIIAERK
UniProt Q6IN85: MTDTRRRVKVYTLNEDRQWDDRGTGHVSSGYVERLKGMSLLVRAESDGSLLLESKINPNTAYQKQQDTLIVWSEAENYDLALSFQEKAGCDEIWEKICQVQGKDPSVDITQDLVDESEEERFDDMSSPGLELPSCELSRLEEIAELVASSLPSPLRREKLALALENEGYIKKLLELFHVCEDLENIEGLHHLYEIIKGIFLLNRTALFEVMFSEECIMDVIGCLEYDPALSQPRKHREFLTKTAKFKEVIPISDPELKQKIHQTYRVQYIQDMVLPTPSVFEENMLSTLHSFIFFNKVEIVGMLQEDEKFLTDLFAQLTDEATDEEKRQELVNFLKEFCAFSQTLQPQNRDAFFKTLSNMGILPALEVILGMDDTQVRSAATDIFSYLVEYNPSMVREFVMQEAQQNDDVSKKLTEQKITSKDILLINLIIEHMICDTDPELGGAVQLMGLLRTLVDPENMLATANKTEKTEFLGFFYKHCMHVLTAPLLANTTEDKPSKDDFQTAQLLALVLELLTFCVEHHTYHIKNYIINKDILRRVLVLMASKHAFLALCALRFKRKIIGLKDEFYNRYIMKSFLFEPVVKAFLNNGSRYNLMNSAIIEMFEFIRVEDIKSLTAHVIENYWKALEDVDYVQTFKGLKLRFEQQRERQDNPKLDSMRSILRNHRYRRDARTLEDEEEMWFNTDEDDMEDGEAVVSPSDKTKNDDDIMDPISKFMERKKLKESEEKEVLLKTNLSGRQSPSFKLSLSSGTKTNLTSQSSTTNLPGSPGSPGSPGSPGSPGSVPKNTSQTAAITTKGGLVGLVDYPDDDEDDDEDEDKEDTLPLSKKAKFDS
UniProt P49643: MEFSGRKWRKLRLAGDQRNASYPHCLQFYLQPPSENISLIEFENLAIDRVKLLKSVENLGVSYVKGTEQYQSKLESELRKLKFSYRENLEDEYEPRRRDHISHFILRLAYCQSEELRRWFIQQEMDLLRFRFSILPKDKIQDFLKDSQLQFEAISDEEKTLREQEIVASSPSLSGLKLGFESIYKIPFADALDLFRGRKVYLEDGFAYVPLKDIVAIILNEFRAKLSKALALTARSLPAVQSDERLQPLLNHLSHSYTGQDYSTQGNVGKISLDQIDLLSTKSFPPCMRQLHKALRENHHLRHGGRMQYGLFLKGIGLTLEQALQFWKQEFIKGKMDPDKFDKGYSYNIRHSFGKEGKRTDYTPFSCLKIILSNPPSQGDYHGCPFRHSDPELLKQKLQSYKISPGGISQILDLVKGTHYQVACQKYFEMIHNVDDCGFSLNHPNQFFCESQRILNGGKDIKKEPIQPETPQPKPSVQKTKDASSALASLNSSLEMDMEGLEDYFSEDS
UniProt P62136, whole entry, looked up: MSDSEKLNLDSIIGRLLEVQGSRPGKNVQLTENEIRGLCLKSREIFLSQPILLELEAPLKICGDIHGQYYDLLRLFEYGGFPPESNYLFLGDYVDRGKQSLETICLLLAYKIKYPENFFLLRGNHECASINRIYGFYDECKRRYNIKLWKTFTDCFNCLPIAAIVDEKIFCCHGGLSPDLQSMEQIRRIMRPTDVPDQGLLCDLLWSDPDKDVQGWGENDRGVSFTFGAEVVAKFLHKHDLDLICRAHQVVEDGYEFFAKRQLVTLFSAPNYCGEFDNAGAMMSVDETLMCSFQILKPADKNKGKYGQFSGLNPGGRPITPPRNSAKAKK
UniProt Q8TAE6: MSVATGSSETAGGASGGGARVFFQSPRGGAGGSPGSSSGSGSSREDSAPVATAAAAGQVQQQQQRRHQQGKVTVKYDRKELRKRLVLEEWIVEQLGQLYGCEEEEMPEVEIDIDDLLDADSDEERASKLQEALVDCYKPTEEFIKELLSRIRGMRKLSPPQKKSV
UniProt P32119: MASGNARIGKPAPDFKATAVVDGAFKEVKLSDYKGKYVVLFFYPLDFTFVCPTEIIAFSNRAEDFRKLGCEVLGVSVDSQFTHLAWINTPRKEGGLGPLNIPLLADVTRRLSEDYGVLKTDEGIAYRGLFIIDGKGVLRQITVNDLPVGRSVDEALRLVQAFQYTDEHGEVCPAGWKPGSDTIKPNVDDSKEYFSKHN
UniProt Q9NY27: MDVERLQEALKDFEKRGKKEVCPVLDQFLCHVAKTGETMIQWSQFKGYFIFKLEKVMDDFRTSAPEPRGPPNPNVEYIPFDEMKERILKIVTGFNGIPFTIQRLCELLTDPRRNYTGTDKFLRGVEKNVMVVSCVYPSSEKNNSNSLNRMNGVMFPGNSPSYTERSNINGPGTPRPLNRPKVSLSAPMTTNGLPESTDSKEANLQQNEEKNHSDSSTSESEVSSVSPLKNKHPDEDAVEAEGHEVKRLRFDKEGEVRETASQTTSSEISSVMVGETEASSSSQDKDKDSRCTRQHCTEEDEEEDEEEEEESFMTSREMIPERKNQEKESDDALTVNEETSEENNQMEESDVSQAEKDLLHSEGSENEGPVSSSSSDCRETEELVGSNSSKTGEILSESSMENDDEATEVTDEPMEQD
UniProt O43741: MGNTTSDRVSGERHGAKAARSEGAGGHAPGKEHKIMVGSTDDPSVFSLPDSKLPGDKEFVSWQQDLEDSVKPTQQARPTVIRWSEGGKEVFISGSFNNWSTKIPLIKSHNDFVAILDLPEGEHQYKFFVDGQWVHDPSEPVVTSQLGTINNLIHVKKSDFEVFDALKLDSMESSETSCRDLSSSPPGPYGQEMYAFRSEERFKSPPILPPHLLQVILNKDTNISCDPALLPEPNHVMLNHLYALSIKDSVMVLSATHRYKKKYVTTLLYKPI
UniProt Q96C90: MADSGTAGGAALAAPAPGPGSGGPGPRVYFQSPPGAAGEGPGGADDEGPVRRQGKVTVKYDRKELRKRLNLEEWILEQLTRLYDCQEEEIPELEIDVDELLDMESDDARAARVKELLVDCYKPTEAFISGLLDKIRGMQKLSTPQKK
UniProt Q66LE6: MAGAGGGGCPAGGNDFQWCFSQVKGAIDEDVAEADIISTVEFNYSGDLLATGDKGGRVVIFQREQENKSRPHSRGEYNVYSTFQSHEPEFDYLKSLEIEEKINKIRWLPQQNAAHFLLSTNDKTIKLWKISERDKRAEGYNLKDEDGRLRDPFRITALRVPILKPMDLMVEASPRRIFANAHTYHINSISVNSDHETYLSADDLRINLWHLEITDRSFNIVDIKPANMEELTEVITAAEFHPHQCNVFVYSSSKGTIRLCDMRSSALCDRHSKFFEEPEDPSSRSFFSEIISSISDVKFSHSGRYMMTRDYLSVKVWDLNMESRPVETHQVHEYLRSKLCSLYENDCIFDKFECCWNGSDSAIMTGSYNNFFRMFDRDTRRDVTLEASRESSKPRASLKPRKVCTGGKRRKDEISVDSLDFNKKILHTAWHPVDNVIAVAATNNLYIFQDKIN

Assays:
Assay in all cases: log2 fold change, soluble protein after heating vs DMSO (PISA); higher = thermal stabilisation; K562 cells, 10 uM, 30 min; active = over 0.2 and 3.5 SD of the protein, either way, in both replicates (recomputed)
[1] = compound: C1=CC=C(C=C1)[C@H](COC2=CC3=C(C=C2)NC(=O)N3)NC(=O)C4=CC=CN(C4=O)CC5=CC(=C(C=C5)F)F
Outline: (§1)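 K562 cells (2×10^6 cells/mL) were treated with 10 μM compound for 30 min, and aliquots were heated for 3 min over 48°C-58°C. Pooled aliquots were extracted in PBS with 0.5% NP-40 at 4°C, and the supernatant after 21,000xg for 90 min was measured by TMTpro 16plex LC-MS/MS with channel sums equalised. Reported thermal stability, relative to control samples and from duplicates, is a log2 fold change.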

[2] = compound: CC1=C(SC2=C1C(=N[C@H](C3=NN=C(N32)C)CC(=O)N)C4=CC=C(C=C4)Cl)C
Outline: as §1

[3] = compound: CC1=C2C(=CC=C1)N=C(N(C2=O)C3=CC=CC=C3C)CN4C=NC5=C(N=CN=C54)N
Outline: as §1

[4] = compound: Cc1sc2c(c1C)C(c1ccc(Cl)cc1)=N[C@@H](CC(=O)OC(C)(C)C)c1nnc(C)n1-2
Outline: as §1

[5] = compound: c1ccc([C@@H]2C[C@H]2NC2CCNCC2)cc1
Outline: as §1

Measured: log2 fold change

PRIM1 (UniProt P49642)
inactive: [1] -0.149 | [2] -0.033 | [3] 0.053 | [4] 0.033 | [5] 0.01

PRMT1 (UniProt Q99873)
inactive: [1] -0.034 | [2] 0.087 | [3] -0.006 | [4] -0.013 | [5] -0.022

PRKCSH isoform 2 (UniProt P14314)
inactive: [1] -0.01 | [2] 0.024 | [3] -0.138 | [4] -0.012 | [5] 0.044

PPP4R1 (UniProt Q8TF05)
inactive: [1] -0.049 | [2] 0.035 | [3] 0.065 | [4] -0.021 | [5] -0.014

PRDX4 (UniProt Q13162)
inactive: [1] -0.023 | [2] 0.043 | [3] 0.032 | [4] 0.012 | [5] 0.018

PQBP1 (UniProt O60828)
inactive: [1] 0.026 | [2] -0.022 | [3] -0.053 | [4] 0.007 | [5] 0.018

PRMT6 (UniProt Q96LA8)
inactive: [1] -0.011 | [2] 0.035 | [3] 0.077 | [4] -0.244 | [5] -0.159

PRPF3 (UniProt O43395)
inactive: [1] -0.09 | [2] -0.208 | [3] 0.08 | [4] -0.017 | [5] 0.115

PRKCD (UniProt Q05655)
inactive: [1] -0.05 | [2] 0.082 | [3] 0.071 | [4] 0.004 | [5] -0.021

PPP2R5C isoform 5 (UniProt Q13362)
inactive: [1] -0.039 | [2] 0.001 | [3] 0.084 | [4] -0.067 | [5] -0.029

PRKRA (UniProt O75569)
inactive: [1] 0.067 | [2] -0.246 | [3] -0.25 | [4] 0.226 | [5] 0.047

PRMT5 (UniProt O14744)
inactive: [1] -0.031 | [2] 0.022 | [3] 0.021 | [4] 0.004 | [5] -0.043

PPP4R3A (UniProt Q6IN85)
inactive: [1] 0.01 | [2] 0.039 | [3] 0.059 | [4] 0.02 | [5] 0.028

PREP (UniProt P48147)
inactive: [1] -0.1 | [2] -0.041 | [3] 0.081 | [4] 0.008 | [5] -0.068

PRIM2 (UniProt P49643)
inactive: [1] -0.07 | [2] 0.063 | [3] 0.189 | [4] 0.014 | [5] -0.092

PPP1CA (UniProt P62136)
inactive: [1] 0.003 | [2] 0.022 | [3] 0.025 | [4] 0.016 | [5] 0.015

PPP1R14C (UniProt Q8TAE6)
inactive: [1] -0.134 | [2] 0.077 | [3] -0.109 | [4] -0.017 | [5] 0.25

Two neighbouring entries out of the list so far, for reference:
PPP4R3A (UniProt Q6IN85)
inactive: [1] 0.01 | [2] 0.039 | [3] 0.059 | [4] 0.02 | [5] 0.028

PREP (UniProt P48147)
inactive: [1] -0.1 | [2] -0.041 | [3] 0.081 | [4] 0.008 | [5] -0.068

Next part.

PRDX2 (UniProt P32119)
inactive: [1] -0.005 | [2] 0.053 | [3] 0.047 | [4] 0.017 | [5] -0.004

PPP4R2 (UniProt Q9NY27)
inactive: [1] 0.001 | [2] 0.064 | [3] -0.015 | [4] 0.029 | [5] 0.015

PRKAB2 (UniProt O43741)
inactive: [1] -0.133 | [2] 0.084 | [3] -0.087 | [4] -0.117 | [5] -0.077

PRAME (UniProt P78395)
inactive: [1] 0.016 | [2] -0.079 | [3] -0.006 | [4] 0.026 | [5] -0.019

PPP1R14B (UniProt Q96C90)
inactive: [1] -0.212 | [2] 0.086 | [3] -0.051 | [4] -0.111 | [5] -0.34

PRKCB isoform 2 (UniProt P05771)
inactive: [1] -0.034 | [2] 0.028 | [3] 0.053 | [4] 0.027 | [5] -0.008

PPP2R2D (UniProt Q66LE6)
inactive: [1] -0.085 | [2] 0.048 | [3] 0.057 | [4] 0.113 | [5] 0.048
